Assay results from patent USRE47221E1, “Tricyclic compounds” (AbbVie Inc., priority 2009, dated 2019).

By UniProt entry, the sequences of proteins in these tests, tags left out. Residues count along the entry.
UniProt P52333, 811-1103 limits assumed: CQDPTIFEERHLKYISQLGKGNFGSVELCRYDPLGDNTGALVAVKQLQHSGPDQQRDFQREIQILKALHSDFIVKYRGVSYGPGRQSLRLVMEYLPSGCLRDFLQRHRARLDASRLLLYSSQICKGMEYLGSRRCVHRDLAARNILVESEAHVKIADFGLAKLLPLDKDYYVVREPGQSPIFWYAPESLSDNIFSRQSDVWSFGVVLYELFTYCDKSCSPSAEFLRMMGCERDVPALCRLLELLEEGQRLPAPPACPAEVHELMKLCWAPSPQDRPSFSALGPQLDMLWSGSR

Biological target: Jak3 (Homo sapiens, UniProt P52333)
Assay: Jak3 enzyme data for selected compounds
Format: biochemical
Settings: read-out: JAK3 enzyme IC50

C[C@@H]1C[C@@H](Nc2ccccc2)C[C@@H]1c1ncc2cnc3[nH]ccc3n12
IC50: < 100 nM

The structures given here were assigned with low confidence; some may be wrong.
